Source: paper PMC7284918, “In-Depth Characterization of EpiIntestinal Microtissue as a Model for Intestinal Drug Absorption and Metabolism in Human” (Pharmaceutics, 2020)

Experiments:
[1] = Intestinal first-pass availability in EpiIntestinal microtissues; format: in vitro ADME; details: human, 10 µM apical, GI firstpass availability, read-out: Recovery in Basal Comp. @ 24h (%)
Method: Compounds were diluted in culture media to a final concentration of 10 µM and added to the apical (donor) compartment (total volume: 100 µL for EpiIntestinal and 200 µL for Caco-2). After the incubation at 37 °C for 2, 4, 6, and 24 h, samples (50 µL) were taken from the basal (receiver) compartment (total volume: 5000 µL for EpiIntestinal and 800 µL for Caco-2). After the last timepoint, samples from the donor compartments and the cell lysates were also collected. Compound concentrations in the samples were determined by HPLC-MS/MS (Section 2.3).
GI first-pass availability of the tested compounds was expressed as fraction (%) of the total amount of a compound added to the donor compartment recovered in the receiver compartment.

[2] = human, clinical; cited from earlier work
[3] = Clinical pharmacokinetic data and calculated Fa × Fg in human; format: in vivo; details: calculated from clinical pharmacokinetic data (Section 2.8, Table 2)
Description: A set of 12 marketed drugs are selected for the evaluation of EpiIntestinal microtissues.

COC(=O)C1=C(C)NC(C)=C(C(=O)OC)C1c1ccccc1[N+](=O)[O-] [Nifedipine]
recovery at 24 h, 10 µM [1]: 110% | F (total oral availability) [2]: 0.9 [8] | Fa × Fg in Human (%) [3]: 100%
